Data: paper PMC4632311
Results are given in words; binding and its absence hold for the method and conditions named. Binding seen in cells or lysates may run through a third protein. For some assays here: A result given as binding can be weak or reduced; the word gives no strength.

Chains of the proteins cited; added tags and fusions are not shown. Lines headed by an entry give the natural chain unless they say otherwise; changes in a name come on top.
UniProt Q4QFZ0: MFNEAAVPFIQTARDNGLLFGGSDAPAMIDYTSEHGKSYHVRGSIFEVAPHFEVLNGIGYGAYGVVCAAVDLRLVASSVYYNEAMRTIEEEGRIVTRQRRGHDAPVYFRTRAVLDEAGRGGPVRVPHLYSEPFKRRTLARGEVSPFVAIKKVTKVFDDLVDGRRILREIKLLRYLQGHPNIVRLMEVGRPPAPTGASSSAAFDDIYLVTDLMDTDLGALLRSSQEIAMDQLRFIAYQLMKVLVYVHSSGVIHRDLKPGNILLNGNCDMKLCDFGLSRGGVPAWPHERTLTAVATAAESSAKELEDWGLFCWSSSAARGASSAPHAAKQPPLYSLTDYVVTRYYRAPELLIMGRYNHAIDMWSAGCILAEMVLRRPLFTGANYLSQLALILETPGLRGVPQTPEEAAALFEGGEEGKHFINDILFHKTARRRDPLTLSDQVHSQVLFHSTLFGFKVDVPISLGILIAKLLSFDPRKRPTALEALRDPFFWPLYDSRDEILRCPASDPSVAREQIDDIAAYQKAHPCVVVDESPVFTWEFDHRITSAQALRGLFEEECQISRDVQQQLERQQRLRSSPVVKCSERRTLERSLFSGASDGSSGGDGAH
UniProt E9AEY0: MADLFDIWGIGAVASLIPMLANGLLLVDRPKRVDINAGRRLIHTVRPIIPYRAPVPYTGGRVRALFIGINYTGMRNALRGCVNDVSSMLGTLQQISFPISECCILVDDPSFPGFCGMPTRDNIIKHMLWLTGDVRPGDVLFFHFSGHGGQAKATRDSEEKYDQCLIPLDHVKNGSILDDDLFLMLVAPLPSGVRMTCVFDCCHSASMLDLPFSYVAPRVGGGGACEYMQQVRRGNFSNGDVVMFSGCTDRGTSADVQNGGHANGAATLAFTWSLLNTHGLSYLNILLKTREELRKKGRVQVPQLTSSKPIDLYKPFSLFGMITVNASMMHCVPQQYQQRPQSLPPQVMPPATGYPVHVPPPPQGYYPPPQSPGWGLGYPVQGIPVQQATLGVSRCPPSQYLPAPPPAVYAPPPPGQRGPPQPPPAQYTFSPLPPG

Legend:
[1] = molecular target: GFP-tagged L. major MPK7 (GFP-MPK7) (L. major) (UniProt Q4QFZ0); experiment: condition: only cells in autophagic conditions (day 5 stationary phase); pull-down; as a4, but parasites in autophagic conditions (legend: day 5 stationary phase)
[2] = molecular target: GFP-tagged L. major MPK7 (GFP-MPK7) (L. major) (UniProt Q4QFZ0); experiment: pull-down; GFP-MPK7 isolated from crude L. major lysates with magnetic beads carrying anti-GFP antibody (uMACS GFP Isolation Kit), 1 h at 4 C; blot with anti-MCA; logarithmic cultures untreated or treated 4 h with 40 uM miltefosine

binding [1]: no binding
binding [2]: binds
Substance: LmjMCA (endogenous) (from UniProt E9AEY0) (enzyme)
